According to patent US20240059729A1, “MULTIFUNCTIONAL CYCLIC DINUCLEOTIDE AND USE THEREOF” (TYLIGAND BIOSCIENCE (SHANGHAI) LIMITED, priority 2020, published 2024):
Structures can show the parent of a compound that is named as a salt. At least one structure is not confirmed: it was looked up by name or label, or the drawing left a doubt.

Key:
[1] = system: IFN-β secretion by THP-1 cells; test: Activation of IFN-β secretion by THP-1 cells (Human IFN-beta ELISA); type: cell-based; details: EC50 compared with 2′,3′-cGAMP and ADU-S100
Protocol: THP-1 cell, a human monocytic leukemia cell line, has the STING phenotype of HAQ type, i.e., R71H-G230A-R293Q. This assay used the Human IFN-beta DuoSet ELISA Kit from R & D (R & D, Cat #DY814-05) and the DuoSet ELISA Ancillary Reagent Kit 2 (R & D, Cat #DY008) to evaluate the activation of IFN-β secretion from THP-1 cells by representative compounds of the invention.
In thawing the THP-1 cells (ATCC #TIB-202), a cell freezing tube was quickly shaken in a water bath at 37° C. to thaw the cells within 1 min. The thawed cell suspension was taken and evenly mixed with an RPMI1640 medium (Hyclone, product #SH30027.01) containing 10% FBS (Life Technology, Cat #10099-141), centrifuged for 5 min at 1000 rpm, and the supernatant was discarded. The cell pellet was resuspended in 5 mL of the complete medium (RPMI 1640 medium containing 10% FBS), placed into a cell culture flask with a bottom area of 25 cm^2, and incubated in a cell incubator at 37° C., 5% CO2 and 95% humidity. When the cell confluence reached about 80%, the cells were passaged. All the cells in the culture flask were transferred to a 15 mL centrifuge tube, centrifuged for 5 min at 1000 rpm, and the supernatant was discarded. […] Cell viability was then detected by Trypan blue exclusion test and to be used for plating when the cell viability was confirmed to be more than 95%. […]

CT26 cells = test: Inhibition of proliferation of CT26 cells (CellTiter-Glo); type: cell-based, mouse
Protocol: CT26 cell is a mouse colorectal cancer cell line. This assay used the CellTiter-Glo Luminescence Cell Vitality Assay kit from Promega to evaluate the inhibitory activity of the compounds on the proliferation of CT26 cells.
In thawing the CT26 cells (ATCC #CRL-2638), a cell freezing tube was quickly shaken in a water bath at 37° C. to thaw the cells within 1 min. The thawed cell suspension was taken and evenly mixed with DMEM medium (GE, Cat #SH30243.01) containing 10% FBS (GIBCO, Cat #10099-141), centrifuged for 5 min at 1000 rpm, and the supernatant was discarded. […]
The cell suspension was centrifuged to discard the old culture medium, washed once using DMEM medium (serum-free), and centrifuged to remove the supernatant. […] Cell viability was then detected by Trypan blue exclusion test and to be used for plating when the cell viability was confirmed to be more than 95%. […]
After 120 hours, the CellTiter-Glo reagent (Promega, Cat #G7572) was thawed and the plates were equilibrated at room temperature for 30 min. […] The plates were placed at room temperature for 20 min to stabilize the luminescence signal, and the luminescence value of each well was scanned at full wavelength with a multifunctional microplate reader (Molecular Devices, Spectramax M3). […]

| Structure (SMILES) | Activating effect on IFN-β secretion / STING agonist activity (in words) [1] | Inhibitory potency on in vitro growth of CT26 tumor cells (in words) (CT26 cells) |
| --- | --- | --- |
| CNc1nc(N)c2ncn([C@@H]3O[C@@H]4CO[P@@](=O)(S)O[C@H]5C(O)[C@@H](CO[P@@](=O)(S)O[C@@H]4C3F)O[C@H]5n3cnc4c(=O)[nH]c(N)nc43)c2n1 (stereo partly drawn) [Example 26, (2′,3′)-cyclo-(Rp,Rp)-[2′-O-phosphorothioate-diester-guanosine]-[3′-O-phosphorothioate-diester-2-methylamino-2′-deoxy-2′-fluoro-beta-adenosine] diammonium salt] | significant STING agonist activity | – |
| Nc1ccn([C@@H]2O[C@@H]3CO[P@@](=O)(S)O[C@H]4C(O)[C@@H](CO[P@@](=O)(S)O[C@@H]3C2(F)F)O[C@H]4n2cnc3c(=O)[nH]c(N)nc32)c(=O)n1 (some centres unmarked) [Example 13, (2′,3′)-cyclo-(Rp,Rp)-[2′-O-phosphorothioate-diester-guanosine]-[3′-O-phosphorothioate-diester-2′-deoxy-2′,2′-difluorocytidine]diammonium salt] | – | particularly significant inhibitory potency |
